No constants are given. Whether binding was seen depends on the method and setting. In cells and extracts the contact can be indirect. Binding calls can cover weak binding; strength is not graded here.
What was measured:
[1] = biological target: T1, Sirt1 (endogenous, porcine adipocytes) (pig (endogenous in porcine adipocytes)) (UniProt A7LKB1); test: co-IP; endogenous proteins; 10 mg total porcine adipocyte lysate with 4 µg antibody overnight, captured on goat anti-rabbit or anti-mouse IgG magnetic beads for 4 h; washed 4 times with lysis buffer; Western blot; Akt2 with Sirt1 over the days of differentiation, the other pairs at day 8 after induction
T1 sequence: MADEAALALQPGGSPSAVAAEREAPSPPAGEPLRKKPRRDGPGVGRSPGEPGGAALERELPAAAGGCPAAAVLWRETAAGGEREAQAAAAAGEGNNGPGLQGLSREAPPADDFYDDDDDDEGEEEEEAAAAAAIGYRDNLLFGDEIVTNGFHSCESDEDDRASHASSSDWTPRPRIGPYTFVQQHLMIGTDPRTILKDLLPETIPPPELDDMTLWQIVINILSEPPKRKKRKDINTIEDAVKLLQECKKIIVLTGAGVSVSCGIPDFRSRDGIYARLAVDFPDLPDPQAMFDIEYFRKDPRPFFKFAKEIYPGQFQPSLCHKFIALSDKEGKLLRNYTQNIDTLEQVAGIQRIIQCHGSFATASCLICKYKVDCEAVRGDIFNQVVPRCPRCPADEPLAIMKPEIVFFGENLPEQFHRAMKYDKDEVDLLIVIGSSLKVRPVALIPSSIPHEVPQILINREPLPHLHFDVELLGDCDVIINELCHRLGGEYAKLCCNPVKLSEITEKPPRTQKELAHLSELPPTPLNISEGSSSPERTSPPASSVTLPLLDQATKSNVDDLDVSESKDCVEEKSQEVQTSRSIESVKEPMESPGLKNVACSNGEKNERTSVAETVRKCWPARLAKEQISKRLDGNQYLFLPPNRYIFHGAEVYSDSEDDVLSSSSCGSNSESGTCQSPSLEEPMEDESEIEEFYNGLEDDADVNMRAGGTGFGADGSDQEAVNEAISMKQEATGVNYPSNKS

By UniProt entry, the sequences of proteins in these tests, tags left out. Where a name states a change or a piece, a line headed by the entry shows the natural chain unless it says otherwise.
UniProt G9BWQ2: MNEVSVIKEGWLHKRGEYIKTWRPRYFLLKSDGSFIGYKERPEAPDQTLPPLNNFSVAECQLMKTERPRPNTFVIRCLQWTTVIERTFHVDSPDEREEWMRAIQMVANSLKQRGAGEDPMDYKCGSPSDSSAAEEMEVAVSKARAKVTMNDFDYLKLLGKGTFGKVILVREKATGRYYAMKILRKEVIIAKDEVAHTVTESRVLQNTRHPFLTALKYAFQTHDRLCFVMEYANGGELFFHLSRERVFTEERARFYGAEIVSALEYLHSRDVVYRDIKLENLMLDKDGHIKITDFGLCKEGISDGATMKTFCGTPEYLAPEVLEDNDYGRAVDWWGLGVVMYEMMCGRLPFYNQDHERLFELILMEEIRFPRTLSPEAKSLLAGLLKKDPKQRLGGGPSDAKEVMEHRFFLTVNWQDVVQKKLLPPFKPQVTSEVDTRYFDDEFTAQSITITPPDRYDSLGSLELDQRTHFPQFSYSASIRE
UniProt F1RNW6: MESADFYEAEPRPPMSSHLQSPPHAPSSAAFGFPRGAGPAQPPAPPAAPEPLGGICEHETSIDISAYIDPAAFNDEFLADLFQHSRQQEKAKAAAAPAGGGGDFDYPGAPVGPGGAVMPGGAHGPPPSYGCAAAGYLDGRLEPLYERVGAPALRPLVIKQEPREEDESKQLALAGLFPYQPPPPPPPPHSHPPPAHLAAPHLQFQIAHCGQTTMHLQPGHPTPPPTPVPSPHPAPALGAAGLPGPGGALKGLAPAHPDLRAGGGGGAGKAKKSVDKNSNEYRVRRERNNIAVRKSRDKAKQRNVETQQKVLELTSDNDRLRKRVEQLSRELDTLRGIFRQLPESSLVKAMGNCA

[2] = biological target: Akt2 (endogenous, porcine adipocytes) (pig (endogenous in porcine adipocytes)) (UniProt G9BWQ2); test: as above

Substance | binding [1] | binding [2]
Akt2 (endogenous, porcine adipocytes) (from UniProt G9BWQ2) | binds | –
C/EBPα (endogenous, porcine adipocytes) (from UniProt F1RNW6 1-354) | – | binds

From paper PMC3741135
